PubChem BioAssay AID1259264, Sanger Institute, 2017
This is one part, drawn at random, of 794 deposited reagents. Of all reagents, 15 (1.9%) were called active. 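Calls rest on knock-down alone at z-score below -3; synergy scores with the three drugs do not decide them.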 No viability above 1 is reported: the scale is capped. The record does not give: the amount of reagent, the time to read-out.

Screen: 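Kinase-wide knock-down to find genes that strengthen targeted drug effects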 (primary screen)
Cell system: CL40 human colorectal cancer cells
Reagents: siRNA pool against human genes
Treatment: DMSO, or an anchor drug: BYL719 at 1 µM, cetuximab at 5 µg/ml, or trametinib at 10 nM
Read-out: 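Replicate-mean viability versus a non-targeting pool, robust z-score from control wells, and mean synergy with BYL719 1 µM, cetuximab 5 µg/ml or trametinib 10 nM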
Scale: robust z-score, siRNA alone and viability, siRNA alone: higher = more viable cells; synergy score with BYL719: higher = stronger combined killing with BYL719; synergy score with cetuximab: higher = stronger combined killing with cetuximab; synergy score with trametinib: higher = stronger combined killing with trametinib
Hit rule: 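Essential call: siRNA with no drug reaches a robust z under -3 (low cell count); drug synergy scores do not affect it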
Calls: active = essential (lowers viability alone); inactive = not essential

no.	target	robust z-score, siRNA alone	viability, siRNA alone (fraction of control)	synergy score with BYL719	synergy score with cetuximab	synergy score with trametinib	activity call
1	BRD2	0.539	1	-0.108	-0.0174	-0.0181	inactive
2	GUCY2EP	-0.0703	0.956	-0.0419	-0.0603	0.0469	inactive
3	ADPGK	-0.858	0.9	-0.141	-0.0959	-0.0145	inactive
4	NAGK	-2.97	0.749	-0.0839	-0.218	-0.0262	inactive
5	PDGFRB	0.492	0.997	-0.0353	-0.00104	-0.0112	inactive
6	IKBKG	-1.93	0.823	-0.168	-0.0514	-0.0109	inactive
7	CNOT1	-2.67	0.77	-0.149	-0.0555	0.119	inactive
8	MPP1	0.521	0.999	-0.0804	0.0585	0.027	inactive
9	SMG1	-0.839	0.901	-0.155	-0.114	-0.00161	inactive
10	MAP2K7	0.259	0.98	-0.16	-0.0371	0.208	inactive
11	TLK1	0.426	0.992	0.00473	0.022	0.143	inactive
12	CIB2	-2.5	0.782	-0.0893	0.0356	0.064	inactive
13	MAP4K5	0.305	0.983	-0.105	0.0645	0.142	inactive
14	DCLK1	0.539	1	-0.00517	-0.0174	0.0392	inactive
15	CKB	0.539	1	-0.156	-0.0174	0.1	inactive
16	UCK1	0.539	1	-0.156	-0.0174	0.0156	inactive
17	NEK10	0.00196	0.961	-0.0752	0.0111	0.0538	inactive
18	MOS	-0.303	0.94	-0.144	0.0819	0.0977	inactive
19	DYRK4	-0.0226	0.96	-0.0507	-0.0332	0.033	inactive
20	GUCY2F	0.539	1	-0.0596	-0.0174	0.112	inactive
21	TEC	0.539	1	-0.12	0.00552	0.0171	inactive
22	PANK1	0.539	1	-0.156	-0.0174	0.0146	inactive
23	PRKD2	0.539	1	-0.0363	0.0693	0.0213	inactive
24	PLK2	-0.739	0.908	-0.00881	-0.0897	-0.0281	inactive
25	MAP4K4	0.342	0.986	-0.141	-0.0313	0.0651	inactive
26	MAP2K1	0.159	0.973	-0.103	-0.0172	0.0325	inactive
27	MAPKAPK5	0.465	0.995	-0.103	0.0324	0.0933	inactive
28	EIF2AK4	-0.763	0.907	-0.235	-0.109	0.0284	inactive
29	PRKCG	0.539	1	-0.0476	0.0409	0.103	inactive
30	MAP4K3	-0.31	0.939	-0.151	0.000329	0.0648	inactive
31	ROS1	-0.442	0.93	-0.0738	-0.00494	0.0819	inactive
32	STYK1	-0.951	0.893	-0.231	-0.122	0.0214	inactive
33	SCYL3	0.324	0.985	0.0238	0.0737	0.0734	inactive
34	NUP98	-4.79	0.618	-0.0493	-0.012	-0.0344	active
35	MYLK	-0.00271	0.961	-0.151	-0.0404	0.13	inactive
36	CAD	0.539	1	-0.156	0.0325	-0.127	inactive

The list goes on (6 carried over from the part before).
no.	target	robust z-score, siRNA alone	viability, siRNA alone (fraction of control)	synergy score with BYL719	synergy score with cetuximab	synergy score with trametinib	activity call
31	ROS1	-0.442	0.93	-0.0738	-0.00494	0.0819	inactive
32	STYK1	-0.951	0.893	-0.231	-0.122	0.0214	inactive
33	SCYL3	0.324	0.985	0.0238	0.0737	0.0734	inactive
34	NUP98	-4.79	0.618	-0.0493	-0.012	-0.0344	active
35	MYLK	-0.00271	0.961	-0.151	-0.0404	0.13	inactive
36	CAD	0.539	1	-0.156	0.0325	-0.127	inactive
37	MVK	0.539	1	-0.146	-0.0174	0.0588	inactive
38	MAP2K2	0.539	1	-0.0675	-0.0174	0.013	inactive
39	PRKCSH	0.539	1	-0.0344	0.0626	0.0916	inactive
40	CALM3	0.209	0.976	-0.0672	-0.0407	-0.00932	inactive
41	TNNI3K	0.346	0.986	-0.00845	-0.031	0.0503	inactive
42	INSRR	0.539	1	-0.104	-0.0174	0.0508	inactive
43	PRKAG1	-0.112	0.953	-0.0255	-0.042	0.115	inactive
44	PMVK	-1.17	0.878	-0.143	-0.0296	0.0363	inactive
45	HK1	0.0498	0.965	-0.125	-0.00119	0.0755	inactive
46	MAP3K19	0.271	0.981	0.000205	-0.000469	0.116	inactive
47	EPHA3	-0.577	0.92	0.0305	-0.0855	0.115	inactive
48	ADK	-0.261	0.943	-0.0754	-0.0738	0.0193	inactive
49	TBK1	0.539	1	-0.149	-0.00511	0.113	inactive
50	NME1	0.539	1	-0.0948	-0.0174	0.06	inactive
51	CSNK1A1	0.539	1	-0.061	0.148	0.0391	inactive
52	MED12	0.41	0.991	0.0223	-0.0265	0.141	inactive
53	PRKCD	0.539	1	-0.00343	-0.0021	0.0998	inactive
54	BPTF	-0.353	0.936	-0.0974	-0.0142	0.112	inactive
55	NEK5	0.468	0.995	-0.16	0.00775	0.0874	inactive
56	HIPK2	0.539	1	-0.152	-0.0174	0.11	inactive
57	NEK11	-0.175	0.949	-0.0681	0.0219	0.0324	inactive
58	PAPSS1	0.539	1	-0.153	-0.0174	0.0638	inactive
59	ACO1	0.539	1	0.0474	-0.0041	0.114	inactive
60	TGFBR2	0.539	1	-0.102	0.0241	0.1	inactive
61	FN1	0.539	1	-0.109	-0.0174	-0.133	inactive
62	PACSIN1	0.37	0.988	-0.03	0.0258	-0.0347	inactive
63	CSNK1G3	0.539	1	-0.0564	-0.0174	0.0529	inactive
